Experimental data taken from US20200330553A1.
Results are given in words; binding and its absence hold for the method and conditions named. In cells and extracts the contact can be indirect. Some results given as binding are weak or reduced against the parent protein; the word gives no strength. Sequences can lack the tags named with a protein.

By UniProt entry, the sequences of proteins in these tests, tags left out. Where a name states a change or a piece, a line headed by the entry shows the natural chain unless it says otherwise.
UniProt Q99523: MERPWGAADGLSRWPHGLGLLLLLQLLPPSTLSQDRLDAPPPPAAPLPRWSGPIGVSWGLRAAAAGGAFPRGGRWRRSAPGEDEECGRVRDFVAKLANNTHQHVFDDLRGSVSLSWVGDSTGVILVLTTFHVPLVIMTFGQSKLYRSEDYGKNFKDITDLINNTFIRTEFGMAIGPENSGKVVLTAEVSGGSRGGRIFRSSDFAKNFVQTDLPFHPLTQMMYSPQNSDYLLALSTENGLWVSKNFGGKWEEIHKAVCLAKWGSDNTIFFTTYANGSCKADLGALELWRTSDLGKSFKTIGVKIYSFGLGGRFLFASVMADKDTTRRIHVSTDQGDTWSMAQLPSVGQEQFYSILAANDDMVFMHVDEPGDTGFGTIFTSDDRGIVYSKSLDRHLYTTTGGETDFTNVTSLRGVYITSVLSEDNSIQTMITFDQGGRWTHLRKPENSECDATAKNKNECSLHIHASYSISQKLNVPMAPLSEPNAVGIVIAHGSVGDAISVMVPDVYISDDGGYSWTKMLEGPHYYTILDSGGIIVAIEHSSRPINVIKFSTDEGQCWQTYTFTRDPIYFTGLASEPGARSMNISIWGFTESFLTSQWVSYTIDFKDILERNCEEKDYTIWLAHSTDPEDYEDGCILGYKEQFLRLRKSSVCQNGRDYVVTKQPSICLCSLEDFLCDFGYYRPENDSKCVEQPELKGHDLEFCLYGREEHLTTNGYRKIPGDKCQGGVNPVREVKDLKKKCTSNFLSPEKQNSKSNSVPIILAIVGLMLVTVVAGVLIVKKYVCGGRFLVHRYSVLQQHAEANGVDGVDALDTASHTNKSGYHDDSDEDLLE

Key:
[1] = target: FLAG-sortilin ECD+TMD (human) (UniProt Q99523); assay: co-immunoprecipitation with anti-FLAG M2, HEK293 cells
[2] = target: FLAG-sortilin full-length (Full) (human) (UniProt Q99523); assay: as above

- binding [1]: binds
- binding [2]: binds
B1: 6×His-sortilin ICD+TMD (receptor)
chain: SAPHHHHHHNSVPIILAIVGLMLVTVVAGVLIVKKYVCGGRFLVHRYSVLQQHAEANGVDGVDALDTASHTNKSGYHDDSDEDLLE
